According to patent publication US8936787B2, “Peptides promoting lipid efflux” (The United States of America as represented by the …, priority 2008, dated 2015):
At least one peptide structure holds a part that was inferred or is arguable (an end, a ring closure or a residue). Some entries share one result that the patent states for a list of compounds. Square brackets hold non-standard residues; d marks the D form. Ends that are not written are not given here. Peptide text beside a SMILES is read from it.

Legend:
control cells [1] = type: binding; conditions: maximum concentration tested; 4° C.
[2] = tested on: Tangier disease fibroblast cell line with a truncated non-functional ABCA1 transporter; test: Cholesterol efflux from Tangier disease fibroblasts; type: cell-based; conditions: 10 μg/ml, 18 hour
Description: (§1) FIG. 5 is a graph illustrating ABCA1-independent efflux of cholesterol from Tangier disease fibroblasts. Normal skin fibroblasts (open bars) and Tangier disease skin fibroblasts (solid bars) were examined for their ability to efflux cholesterol over an 18 hour period when treated with 10 μg/ml apoA-I (A), 10 μg/ml L-37pA (L), and 10 μg/ml D-37pA (D). Results are expressed as the mean of triplicates ±1 SD.
(§2) In order to confirm that the residual lipid efflux from the control cells to L-37pA and D-37pA (see FIG. 1) was not due to a low level of endogenous ABCA1, a Tangier disease fibroblast cell line with a truncated non-functional ABCA1 transporter (Remaley et al., Proc. Natl. Acad. Sci. USA 96:12685-12690, 1999) was evaluated for lipid efflux (FIG. 5).

[3] = tested on: HeLa cells stably transfected with human ABCA1 cDNA (ABCA1 cells); test: Cholesterol and phospholipid efflux from ABCA1 cells; type: cell-based; conditions: for baseline cholesterol efflux retained after cell fixation of ABCA1 cells: 3% paraformaldehyde
Description: (§3) Percentage efflux was calculated after subtracting the radioactive counts in the blank media (αMEM plus 1 mg/ml of BSA), and expressed as the percent of total radioactive counts removed from the cells during the efflux period.
(§4) Cell fixation was performed by a 10 minute treatment with 3% paraformaldehyde in phosphate buffered saline (PBS), followed by three washes with blank media. Lactate dehydrogenase (LDH) release from cells into the media was measured enzymatically (Roche Diagnostics, Indianapolis, Ind.) and expressed, after subtraction of LDH released into blank media, as the percentage of total cell LDH. Total cell LDH was determined after cell solubilization with 1% Triton X-100.

Normal skin fibroblasts = test: Cholesterol efflux from normal skin fibroblasts; type: cell-based; conditions: 10 μg/ml, 18 hour
Description: as §1, §2

[4] = tested on: HeLa cells transfected with only a hygromycin-resistant control plasmid (control cells); test: Cholesterol and phospholipid efflux from control cells; type: cell-based; conditions: for effect of fixation of control cells on cholesterol efflux / cholesterol removed from control cells / phospholipids removed from control cells / lipid (cholesterol and phospholipid) efflux from control cells: 18 hours; for effect of fixation of control cells on cholesterol efflux: 3% paraformaldehyde; for cholesterol removed from control cells / phospholipids removed from control cells: at 40 μg/ml
Description: as §3, §4

ABCA1 cells [5] = test: Competitive binding of radiolabeled L-37pA to ABCA1 cells; design: species or system human; conditions: 8 μM, the maximum concentration tested; 4° C.
Description: FIGS. 7A-7B are a pair of graphs illustrating the competitive binding of L-37pA peptide to ABCA1 transfected cells and control cells. ABCA1 cells (FIG. 7A) and control cells (FIG. 7B) were incubated for 3 hours at 4° C. with the indicated concentration of the competitor proteins [L-37pA (triangle), D-37pA (open square), apoA-I (closed circle), L2D-37pA (star), and L3D-37pA (open circle)] and were then washed and incubated for 1 hour at 4° C. with 1 μg/ml of radiolabeled L-37pA peptide. Results are expressed as the mean of triplicates ±1 SD.
The L-37pA peptide was labeled with ^125I using iodine monochloride. Confluent cells grown on 12-well plates were incubated for 3 hours at 4° C. with the indicated concentration of the unlabeled competitor peptide in αMEM media plus 10 mg/ml of BSA (FIG. 7). […] Cells were washed three times, and cell bound counts were determined after solubilization with 0.1 N NaOH.
A two-step sequential competitive binding assay was performed in order to prevent any potentially interfering interaction of the radiolabeled peptide with the competitor proteins (Mendez et al., J. Clin. Invest. 94:1698-1705, 1994). The cells were first incubated with the competitor proteins for 3 hours, washed, and then the cell binding of the radiolabeled L-37 peptide was measured. […]

ABCA1 cells [6] = test: LDH release from ABCA1 cells; type: cell-based, human; conditions: 40 μg/ml for 18 hours
Description: as §4
(§5) The microsolubilization of the plasma membrane of cells could, therefore, be potentially cytotoxic, but no morphologic effect was observed on the cells after incubation with the peptides or apoA-I, during the efflux experiments. Incubation of the cells with L-37pA and D-37pA at the maximum concentration and time used for the efflux studies (40 μg/ml for 18 hours) did, however, consistently result in the release of a small amount of LDH from both cell lines (control cells: L-37pA (6.1%±0.2), D-37pA (6.6%±0.1); ABCA1 cells: L-37pA (4.3%±0.04), D-37pA (5.7%±0.1)).

control cells [7] = test: LDH release from control cells; type: cell-based; conditions: 40 μg/ml for 18 hours
Description: as §4, §5

[8] = 10 μg/ml, 30 hour efflux period

Row | Compound | binding of radiolabeled L-37pA to control cells blocked by competitor (control cells [1]) | cholesterol efflux from Tangier disease fibroblasts [2] | baseline cholesterol efflux retained after cell fixation of ABCA1 cells ([3]; 10 μg/ml, 18 hours) | lipid (cholesterol and phospholipid) efflux from ABCA1 cells ([3]; 18 hours) | cholesterol efflux from normal fibroblasts (Normal skin fibroblasts) | effect of fixation of control cells on cholesterol efflux ([4]; 10 μg/ml) | cholesterol removed from control cells [4] | phospholipids removed from control cells [4] | binding of labeled L-37pA to ABCA1 cells blocked by competitor (ABCA1 cells [5]) | reduction in cholesterol and phospholipid efflux from ABCA1 cells compared to the L-37pA peptide ([3]; 18 hours) | release of LDH from ABCA1 cells, percentage of total cell LDH (ABCA1 cells [6]) | lipid (cholesterol and phospholipid) efflux from control cells [4] | release of LDH from control cells, percentage of total cell LDH (control cells [7]) | specificity of cholesterol efflux for the ABCA1 transporter ([3]; ABCA1 transfected versus control HeLa cells, 18 hour) | time at which cholesterol efflux from ABCA1 cells was first detectable [3, 8] | cholesterol and phospholipid effluxed from ABCA1 cells relative to control cells ([3]; 18 hours) | protein concentration at which lipid efflux began to show saturation ([3]; 18 hours) | molar concentration at which lipid efflux began to show saturation ([3]; corresponds to 10 μg/ml) | rate of cholesterol efflux from control cells relative to ABCA1 cells ([4]; 10 μg/ml) | time at which cholesterol efflux from control cells was first detectable [4, 8]
1 | CC(C)C[C@@H](NC(=O)[C@@H](Cc1c[nH]c2ccccc12)NC(=O)[C@H](N)CC(=O)O)C(=O)N[C@H](CCCCN)C(=O)N[C@H](C)C(=O)N[C@H](Cc1ccccc1)C(=O)N[C@H](Cc1ccc(O)cc1)C(=O)N[C@H](CC(=O)O)C(=O)N[C@H](CCCCN)C(=O)N[C@@H](C(=O)N[C@H](C)C(=O)N[C@H](CCC(=O)O)C(=O)N[C@H](CCCCN)C(=O)N[C@H](CC(C)C)C(=O)N[C@H](CCCCN)C(=O)N[C@H](CCC(=O)O)C(=O)N[C@H](C)C(=O)N[C@H](Cc1ccccc1)C(=O)N1CCC[C@@H]1C(=O)N[C@H](CC(=O)O)C(=O)N[C@H](Cc1c[nH]c2ccccc12)C(=O)N[C@H](CC(C)C)C(=O)N[C@H](CCCCN)C(=O)N[C@H](C)C(=O)N[C@H](Cc1ccccc1)C(=O)N[C@H](Cc1ccc(O)cc1)C(=O)N[C@H](CC(=O)O)C(=O)N[C@H](CCCCN)C(=O)N[C@@H](C(=O)N[C@H](C)C(=O)N[C@H](CCC(=O)O)C(=O)N[C@H](CCCCN)C(=O)N[C@H](CC(C)C)C(=O)N[C@H](CCCCN)C(=O)N[C@H](CCC(=O)O)C(=O)N[C@H](C)C(=O)N[C@H](Cc1ccccc1)C(=O)O)C(C)C)C(C)C [D-37pA] (H-[dD][dW][dL][dK][dA][dF][dY][dD][dK][dV][dA][dE][dK][dL][dK][dE][dA][dF][dP][dD][dW][dL][dK][dA][dF][dY][dD][dK][dV][dA][dE][dK][dL][dK][dE][dA][dF]-OH; N-terminus and C-terminus assumed) | competed equally well | still able to efflux cholesterol | approximately 30% | effective | effluxed cholesterol | did not further reduce | 5% | 8% | similarly effective |  |  |  |  |  |  |  |  |  |  | 
2 | CC(C)C[C@H](NC(=O)[C@H](Cc1c[nH]c2ccccc12)NC(=O)[C@H](CC(=O)O)NC(=O)[C@@H]1CCCN1C(=O)[C@H](Cc1ccccc1)NC(=O)[C@H](C)NC(=O)[C@H](CCC(=O)O)NC(=O)[C@H](CCCCN)NC(=O)[C@H](CC(C)C)NC(=O)[C@H](CCCCN)NC(=O)[C@H](CCC(=O)O)NC(=O)[C@H](C)NC(=O)[C@H](NC(=O)[C@H](CCCCN)NC(=O)[C@H](CC(=O)O)NC(=O)[C@@H](Cc1ccc(O)cc1)NC(=O)[C@H](Cc1ccccc1)NC(=O)[C@H](C)NC(=O)[C@H](CCCCN)NC(=O)[C@H](CC(C)C)NC(=O)[C@H](Cc1c[nH]c2ccccc12)NC(=O)[C@@H](N)CC(=O)O)C(C)C)C(=O)N[C@@H](CCCCN)C(=O)N[C@@H](C)C(=O)N[C@@H](Cc1ccccc1)C(=O)N[C@H](Cc1ccc(O)cc1)C(=O)N[C@@H](CC(=O)O)C(=O)N[C@@H](CCCCN)C(=O)N[C@@H](C(=O)N[C@@H](C)C(=O)N[C@@H](CCC(=O)O)C(=O)N[C@@H](CCCCN)C(=O)N[C@@H](CC(C)C)C(=O)N[C@@H](CCCCN)C(=O)N[C@@H](CCC(=O)O)C(=O)N[C@@H](C)C(=O)N[C@@H](Cc1ccccc1)C(=O)O)C(C)C [L2D-37pA] (H-DWLKAF[dY]DK[dV]AEKLKEAFPDWLKAF[dY]DK[dV]AEKLKEAF-OH; N-terminus and C-terminus assumed) | less than 5% |  |  | still retained some ability to efflux lipid |  |  |  |  |  | greater than 75% | < 0.5% | unable | < 0.5% |  |  |  |  |  |  | 
3 | CC(C)C[C@H](NC(=O)[C@H](Cc1c[nH]c2ccccc12)NC(=O)[C@H](N)CC(=O)O)C(=O)N[C@H](CCCCN)C(=O)N[C@H](C)C(=O)N[C@@H](Cc1ccccc1)C(=O)N[C@@H](Cc1ccc(O)cc1)C(=O)N[C@H](CC(=O)O)C(=O)N[C@H](CCCCN)C(=O)N[C@H](C(=O)N[C@H](C)C(=O)N[C@@H](CCC(=O)O)C(=O)N[C@H](CCCCN)C(=O)N[C@@H](CC(C)C)C(=O)N[C@H](CCCCN)C(=O)N[C@@H](CCC(=O)O)C(=O)N[C@H](C)C(=O)N[C@@H](Cc1ccccc1)C(=O)N1CCC[C@H]1C(=O)N[C@H](CC(=O)O)C(=O)N[C@@H](Cc1c[nH]c2ccccc12)C(=O)N[C@@H](CC(C)C)C(=O)N[C@H](CCCCN)C(=O)N[C@H](C)C(=O)N[C@@H](Cc1ccccc1)C(=O)N[C@@H](Cc1ccc(O)cc1)C(=O)N[C@H](CC(=O)O)C(=O)N[C@H](CCCCN)C(=O)N[C@H](C(=O)N[C@H](C)C(=O)N[C@@H](CCC(=O)O)C(=O)N[C@H](CCCCN)C(=O)N[C@@H](CC(C)C)C(=O)N[C@H](CCCCN)C(=O)N[C@@H](CCC(=O)O)C(=O)N[C@H](C)C(=O)N[C@@H](Cc1ccccc1)C(=O)O)C(C)C)C(C)C [L3D-37pA] (H-[dD]WL[dK][dA]FY[dD][dK]V[dA]E[dK]L[dK]E[dA]FP[dD]WL[dK][dA]FY[dD][dK]V[dA]E[dK]L[dK]E[dA]F-OH; N-terminus and C-terminus assumed) | inactive |  |  | unable to promote detectable amounts of lipid efflux |  |  |  |  | completely ineffective |  | < 0.5% | unable to promote detectable amounts of lipid efflux | < 0.5% |  |  |  |  |  |  | 
4 | DWLKAFYDKVAEKLKEAFPDWAKAAYDKAAEKAKEAA [5A] |  |  |  |  |  |  |  |  |  |  |  |  |  | completely specific |  |  |  |  |  | 
5 | DWLKAFYDKVAEKLKEAFPDWLKAFYDKVAEKLKEAF [L-37pA] | competed equally well | still able to efflux cholesterol | approximately 30% |  | effluxed cholesterol | did not further reduce | 5% | 8% |  |  |  |  |  |  | 30 min | 2- to 4 fold | ~10 µg/mL | 2 µM | approximately half | 30 min
